Measured data: PubChem BioAssay AID602196 (INSERM, 2012)
The deposit covers about 23,000 reagents; shown is an unselected part. 455 of them (2%) count as active. 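Active includes both protection and sensitisation; some change values fall well beyond the stated -50 to +50 range.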 Further read-outs or replicates are left out here. No sequences are given here. The record does not give: the amount of reagent.

Purpose: 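Knock-downs that protect lung cancer cells from cisplatin or sensitise them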
Cells: human A549 lung cancer cells
Reagent: siRNA pair against human genes
Duration: 48 h transfection before cisplatin; time from cisplatin to read-out not stated
Conditions: cisplatin at a dose killing half of control-siRNA cells; exact dose and duration not given
Measurement: 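Cisplatin cell death as a shift from the 50% death seen with control siRNA; siRNAs toxic or growth-blocking alone scored 0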
Direction: two-siRNA summed score (-2 to +2): higher = both siRNAs protect from cisplatin killing; -2 means both sensitise; mean protection from cisplatin (shift in death): higher = protection from cisplatin killing
Active means: 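siRNAs harmful alone (LDH or WST-1) get 0; others get +1 for less and -1 for more cisplatin killing; genes are active when the two siRNAs give the same sign, summing to ±2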
Meaning of the calls: active = both siRNAs shift cisplatin killing the same way; inactive = no consistent shift, or siRNA harmful alone

What did the screen give for ZNF543 (GeneID 125919)?
two-siRNA summed score (-2 to +2): 0; mean protection from cisplatin (shift in death) (%): 14.2; outcome: inactive

With R3HDM2 (GeneID 22864), what was measured?
two-siRNA summed score (-2 to +2): 0; mean protection from cisplatin (shift in death) (%): 14.9; outcome: inactive

For NLRC5 (GeneID 84166), how do the results read?
two-siRNA summed score (-2 to +2): 0; mean protection from cisplatin (shift in death) (%): 20.9; outcome: inactive

What is on record for ZBTB39 (GeneID 9880)?
two-siRNA summed score (-2 to +2): 0; mean protection from cisplatin (shift in death) (%): -4.3; outcome: inactive

Which result is listed for LOC387941?
two-siRNA summed score (-2 to +2): 1; mean protection from cisplatin (shift in death) (%): 16; outcome: inactive

What did the screen give for CADM3 (GeneID 57863)?
two-siRNA summed score (-2 to +2): 0; mean protection from cisplatin (shift in death) (%): 3.7; outcome: inactive

What did the screen give for ARHGDIG (GeneID 398)?
two-siRNA summed score (-2 to +2): -1; mean protection from cisplatin (shift in death) (%): -8.5; outcome: inactive

What is on record for LOC440476?
two-siRNA summed score (-2 to +2): 1; mean protection from cisplatin (shift in death) (%): 14.4; outcome: inactive

With EGFL6 (GeneID 25975), how do the results read?
two-siRNA summed score (-2 to +2): 0; mean protection from cisplatin (shift in death) (%): -8.5; outcome: inactive

With NR1I2 (GeneID 8856), what does the deposit list?
two-siRNA summed score (-2 to +2): 0; mean protection from cisplatin (shift in death) (%): 8.6; outcome: inactive

Which result is listed for IL13RA2 (GeneID 3598)?
two-siRNA summed score (-2 to +2): 1; mean protection from cisplatin (shift in death) (%): 22.3; outcome: inactive

Which result is listed for BDKRB1 (GeneID 623)?
two-siRNA summed score (-2 to +2): 0; mean protection from cisplatin (shift in death) (%): -4.8; outcome: inactive

What is on record for UBE2W (GeneID 55284)?
two-siRNA summed score (-2 to +2): 1; mean protection from cisplatin (shift in death) (%): 15; outcome: inactive

With KIRREL2 (GeneID 84063), what was measured?
two-siRNA summed score (-2 to +2): 0; mean protection from cisplatin (shift in death) (%): 9.3; outcome: inactive

What did the screen give for KCNMB2 (GeneID 10242)?
two-siRNA summed score (-2 to +2): 1; mean protection from cisplatin (shift in death) (%): 3.3; outcome: inactive

Which result is listed for SPESP1 (GeneID 246777)?
two-siRNA summed score (-2 to +2): 0; mean protection from cisplatin (shift in death) (%): -1.1; outcome: inactive

With PIANP (GeneID 196500), how do the results read?
two-siRNA summed score (-2 to +2): -1; mean protection from cisplatin (shift in death) (%): -5.2; outcome: inactive

For CD3D (GeneID 915), how do the results read?
two-siRNA summed score (-2 to +2): 0; mean protection from cisplatin (shift in death) (%): 9.5; outcome: inactive

For LOC442730, how do the results read?
two-siRNA summed score (-2 to +2): 1; mean protection from cisplatin (shift in death) (%): 8.3; outcome: inactive

Which result is listed for NSMCE3 (GeneID 56160)?
two-siRNA summed score (-2 to +2): 0; mean protection from cisplatin (shift in death) (%): -1.6; outcome: inactive

What did the screen give for SCAF4 (GeneID 57466)?
two-siRNA summed score (-2 to +2): 2; mean protection from cisplatin (shift in death) (%): 17.2; outcome: active

With NEFH (GeneID 4744), what was measured?
two-siRNA summed score (-2 to +2): -1; mean protection from cisplatin (shift in death) (%): -2.7; outcome: inactive

How did the screen score ATP11A (GeneID 23250)?
two-siRNA summed score (-2 to +2): 0; mean protection from cisplatin (shift in death) (%): 4.2; outcome: inactive

Which result is listed for LOC440497?
two-siRNA summed score (-2 to +2): 1; mean protection from cisplatin (shift in death) (%): 7.4; outcome: inactive

For ZNF518A (GeneID 9849), how do the results read?
two-siRNA summed score (-2 to +2): 1; mean protection from cisplatin (shift in death) (%): 8.5; outcome: inactive

How did the screen score ASPRV1 (GeneID 151516)?
two-siRNA summed score (-2 to +2): -1; mean protection from cisplatin (shift in death) (%): -12.1; outcome: inactive

What is on record for KCTD3 (GeneID 51133)?
two-siRNA summed score (-2 to +2): 0; mean protection from cisplatin (shift in death) (%): -2.6; outcome: inactive

For PDHB (GeneID 5162), how do the results read?
two-siRNA summed score (-2 to +2): 1; mean protection from cisplatin (shift in death) (%): 11.7; outcome: inactive

What is on record for NPSR1 (GeneID 387129)?
two-siRNA summed score (-2 to +2): 0; mean protection from cisplatin (shift in death) (%): -3.1; outcome: inactive

With MOGAT3 (GeneID 346606), what does the deposit list?
two-siRNA summed score (-2 to +2): 1; mean protection from cisplatin (shift in death) (%): 14.9; outcome: inactive

What did the screen give for GRAP2 (GeneID 9402)?
two-siRNA summed score (-2 to +2): 0; mean protection from cisplatin (shift in death) (%): -3.8; outcome: inactive
